# Results published in the supplement of paper PMC12067093, “Discovery and optimisation of a covalent ligand for TRIM25 and its application to targeted protein ubiquitination” (Chemical Science, 2025).
# Sequences of proteins named here, by UniProt entry; tags and fusion partners are left off. A change or cut given only in a name is not applied to a line headed by its entry.
# UniProt Q9NP81: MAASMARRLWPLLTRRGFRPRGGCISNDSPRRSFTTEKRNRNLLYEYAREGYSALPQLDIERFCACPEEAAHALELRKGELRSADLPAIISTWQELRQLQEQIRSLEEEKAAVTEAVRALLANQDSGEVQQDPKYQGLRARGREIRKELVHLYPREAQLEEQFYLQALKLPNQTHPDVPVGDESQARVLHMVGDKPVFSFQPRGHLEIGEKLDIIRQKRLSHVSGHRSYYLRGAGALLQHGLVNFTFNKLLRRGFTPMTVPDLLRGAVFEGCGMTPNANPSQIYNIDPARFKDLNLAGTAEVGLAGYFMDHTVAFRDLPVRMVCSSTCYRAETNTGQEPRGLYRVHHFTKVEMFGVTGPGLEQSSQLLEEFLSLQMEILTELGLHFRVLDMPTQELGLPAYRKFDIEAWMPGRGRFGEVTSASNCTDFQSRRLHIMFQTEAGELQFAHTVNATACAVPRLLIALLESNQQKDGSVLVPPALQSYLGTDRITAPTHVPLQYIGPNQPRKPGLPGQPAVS
# UniProt P49591: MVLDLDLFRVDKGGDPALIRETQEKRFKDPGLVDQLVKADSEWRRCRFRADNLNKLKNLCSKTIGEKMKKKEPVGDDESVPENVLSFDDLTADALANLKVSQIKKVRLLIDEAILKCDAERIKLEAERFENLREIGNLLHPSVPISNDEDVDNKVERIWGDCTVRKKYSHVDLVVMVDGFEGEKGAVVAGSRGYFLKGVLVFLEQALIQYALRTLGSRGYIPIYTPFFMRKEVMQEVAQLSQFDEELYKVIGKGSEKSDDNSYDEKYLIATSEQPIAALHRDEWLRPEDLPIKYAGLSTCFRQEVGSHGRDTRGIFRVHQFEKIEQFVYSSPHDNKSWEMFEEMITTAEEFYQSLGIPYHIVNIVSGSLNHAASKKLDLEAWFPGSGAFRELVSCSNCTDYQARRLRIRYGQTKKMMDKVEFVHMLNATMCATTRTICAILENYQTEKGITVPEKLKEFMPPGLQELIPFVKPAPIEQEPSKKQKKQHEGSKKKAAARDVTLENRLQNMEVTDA
# The list shows a part of the results.
# Legend:
# Assay in all cases: probe-labelled cysteine peptide fold change vs DMSO (competition) (log2 fold change); higher = less target engagement (more negative = stronger competition)
# Conditions in all cases: THP-1, incubation time: 4 h
# [1] = molecular target: SARS2_Q9NP81_425_FGEVTSASNCTDFQSR (UniProt Q9NP81)
# [2] = molecular target: SARS2_Q9NP81_64_FCACPEEAAHALELR (UniProt Q9NP81)
# SARS_P49591_162_IWGDCTVR = SARS_P49591_162_IWGDCTVR (UniProt P49591)
# [3] = molecular target: SARS_P49591_395+398_ELVSCSNCTDYQAR (UniProt P49591)
# [4] = molecular target: SARS_P49591_395_ELVSCSNCTDYQAR (UniProt P49591)
# [5] = molecular target: SARS_P49591_398_ELVSCSNCTDYQAR (UniProt P49591)
# [6] = molecular target: SARS_P49591_431_VEFVHMLNATMCATTR (UniProt P49591)
# [7] = molecular target: SARS_P49591_438_TICAILENYQTEK (UniProt P49591)
# 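Note: competitive profiling in live THP-1 cells: cysteine peptides tagged with an iodoacetamide desthiobiotin (IA-DTB) probe, intensity after compound treatment relative to DMSO-treated cells.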
compound,measurement,setting,value
Cc1cc(C(=O)N2CCCN(C(=O)CCl)CC2)ccc1-c1ccccc1 [compound 10],probe-labelled cysteine peptide fold change,[1]; 10 µM,-0.265
same,probe-labelled cysteine peptide fold change,[1]; 50 µM,-0.119
same,probe-labelled cysteine peptide fold change,[2]; 10 µM,-0.325
same,probe-labelled cysteine peptide fold change,[2]; 50 µM,-0.305
same,probe-labelled cysteine peptide fold change,SARS_P49591_162_IWGDCTVR; 10 µM,0.0369
same,probe-labelled cysteine peptide fold change,SARS_P49591_162_IWGDCTVR; 50 µM,0.0952
same,probe-labelled cysteine peptide fold change,[3]; 10 µM,-0.202
same,probe-labelled cysteine peptide fold change,[3]; 50 µM,-0.287
same,probe-labelled cysteine peptide fold change,[4]; 10 µM,0.0595
same,probe-labelled cysteine peptide fold change,[4]; 50 µM,0.0655
same,probe-labelled cysteine peptide fold change,[5]; 10 µM,0.0991
same,probe-labelled cysteine peptide fold change,[5]; 50 µM,0.119
same,probe-labelled cysteine peptide fold change,[6]; 10 µM,0.142
same,probe-labelled cysteine peptide fold change,[6]; 50 µM,0.182
same,probe-labelled cysteine peptide fold change,[7]; 10 µM,0.149
same,probe-labelled cysteine peptide fold change,[7]; 50 µM,0.143

# 2 entries drawn at random from the list so far:
compound,measurement,setting,value
Cc1cc(C(=O)N2CCCN(C(=O)CCl)CC2)ccc1-c1ccccc1 [compound 10],probe-labelled cysteine peptide fold change,[3]; 10 µM,-0.202
same,probe-labelled cysteine peptide fold change,[4]; 10 µM,0.0595
